We go through one molecule from article PMC7815755.

Results are given in words; binding and its absence hold for the method and conditions named.

Assay [1] concerns the target T1, GBP2 (guanylate-binding protein 2) (UniProt Q9Z0E6).
T1 sequence: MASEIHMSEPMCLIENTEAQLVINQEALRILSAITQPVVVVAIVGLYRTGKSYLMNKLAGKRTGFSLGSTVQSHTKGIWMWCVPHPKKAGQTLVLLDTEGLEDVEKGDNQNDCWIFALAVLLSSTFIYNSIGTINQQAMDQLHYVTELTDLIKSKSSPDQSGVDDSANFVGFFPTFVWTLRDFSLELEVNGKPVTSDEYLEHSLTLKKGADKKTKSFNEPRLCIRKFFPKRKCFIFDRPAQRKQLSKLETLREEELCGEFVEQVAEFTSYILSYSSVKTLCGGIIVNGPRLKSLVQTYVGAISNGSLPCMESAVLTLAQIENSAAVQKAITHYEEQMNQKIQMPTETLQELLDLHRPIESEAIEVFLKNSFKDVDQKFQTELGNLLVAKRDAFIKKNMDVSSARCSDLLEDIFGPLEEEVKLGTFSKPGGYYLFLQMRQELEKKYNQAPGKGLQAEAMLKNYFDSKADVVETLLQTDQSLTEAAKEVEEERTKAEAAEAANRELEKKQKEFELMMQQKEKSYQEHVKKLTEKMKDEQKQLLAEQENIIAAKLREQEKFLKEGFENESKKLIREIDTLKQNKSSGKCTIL
In words: native gel or EMSA; native PAGE, PhastSystem, 8-25% gradient gels, Coomassie; proteins mixed in the absence and presence of GTP and MgCl2, 1 h at 4 °C; both purified. For orientation: In EMSA bound probe runs differently from free probe, usually more slowly.

The target of assay [2] is T2, mouse GBP5 (guanylate-binding protein 5) (mouse) (UniProt Q8CFB4).
T2 sequence: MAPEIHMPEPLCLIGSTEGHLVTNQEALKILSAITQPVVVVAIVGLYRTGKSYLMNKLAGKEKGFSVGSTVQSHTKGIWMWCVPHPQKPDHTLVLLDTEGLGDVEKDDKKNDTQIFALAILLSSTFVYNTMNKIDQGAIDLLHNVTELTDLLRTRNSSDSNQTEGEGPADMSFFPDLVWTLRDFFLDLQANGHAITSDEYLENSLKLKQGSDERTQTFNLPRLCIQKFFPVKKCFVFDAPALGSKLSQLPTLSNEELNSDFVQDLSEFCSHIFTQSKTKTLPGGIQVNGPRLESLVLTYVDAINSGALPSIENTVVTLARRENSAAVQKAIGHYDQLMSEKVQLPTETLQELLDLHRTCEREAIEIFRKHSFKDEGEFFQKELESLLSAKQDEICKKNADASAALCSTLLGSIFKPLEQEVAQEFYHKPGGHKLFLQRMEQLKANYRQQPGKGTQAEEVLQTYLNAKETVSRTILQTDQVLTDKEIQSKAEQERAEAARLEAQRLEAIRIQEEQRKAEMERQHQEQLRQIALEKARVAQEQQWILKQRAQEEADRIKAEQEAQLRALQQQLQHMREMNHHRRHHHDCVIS
The description is as above.

B1: Immunity-related GTPase B10 (IRGB10), mouse, full length, wild type (protein, UniProt Q0GUM3 1-417)
chain: MGQSSSKPDAKAHNMASSLTEFFKNFKMESKIISKETIDSIQSCIQEGDIQKVISIINAALTDIEKAPLNIAVTGETGAGKSTFINALRGIGHEESESAESGAVETTKDRKKYTHPKFPNVTIWDLPGVGTTNFKPEEYLKKMKFQEYDFFLIISSARFRDNEAQLAEAIKKMKKKFYFVRTKIDSDLWNEKKAKPSSYNREKILEVIRSDCVKNLQNANAASTRVFLVSSFEVAQFDFPSLESTLLEELPAHKRHIFVQCLPTITEPAIDRRRDVLKQTIWLEALKAGASATIPMMSFFNDDIEEFEKILSHYRACFGLDDESLENMAKEWSMSVEELESTIKSPHLLSSEPNESVADKLVKTMEKIFAVTGGFVATGLYFRKSYYMQNYFLDTVTEDAKVLLKKKVFLQDSVDSE
Regarding B1, the binding result in assay [1] and in assay [2] was “no binding” each time.
